Experimental findings from patent US11447486B2, “2-amino-benzimidazole derivatives and their use as 5-lipoxygenase and/or prostaglandin E synthase inhibitors” (INSTITUT PASTEUR KOREA, priority 2014, dated 2022) are described below.

Sequences of proteins named here, by UniProt entry; tags and fusion partners are left off.
UniProt P09917, whole entry: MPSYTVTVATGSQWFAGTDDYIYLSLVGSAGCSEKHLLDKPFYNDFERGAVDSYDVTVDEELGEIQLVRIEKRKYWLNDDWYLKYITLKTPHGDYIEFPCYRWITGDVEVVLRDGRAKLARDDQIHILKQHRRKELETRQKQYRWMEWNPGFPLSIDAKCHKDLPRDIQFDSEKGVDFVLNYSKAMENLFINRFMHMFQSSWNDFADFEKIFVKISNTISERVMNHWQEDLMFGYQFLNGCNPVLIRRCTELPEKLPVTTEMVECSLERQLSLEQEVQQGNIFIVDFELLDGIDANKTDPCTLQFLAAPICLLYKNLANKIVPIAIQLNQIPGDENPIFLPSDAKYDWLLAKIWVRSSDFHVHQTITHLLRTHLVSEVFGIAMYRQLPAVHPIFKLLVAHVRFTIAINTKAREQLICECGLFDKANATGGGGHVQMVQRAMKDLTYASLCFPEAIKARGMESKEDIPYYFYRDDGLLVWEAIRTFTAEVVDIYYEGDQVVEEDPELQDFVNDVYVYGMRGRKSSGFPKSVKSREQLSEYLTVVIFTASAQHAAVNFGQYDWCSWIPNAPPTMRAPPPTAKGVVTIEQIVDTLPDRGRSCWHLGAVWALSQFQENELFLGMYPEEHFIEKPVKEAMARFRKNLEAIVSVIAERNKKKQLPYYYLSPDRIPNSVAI

In test [1] the test system is Rat basophilic leukemia (RBL) cells. Put plainly: LTB4 secretion assay in RBL (rat basophilic leukemia cells). Particulars: read-out: RBL (EC50). The procedure: Rat basophilic leukemia (RBL) cells (ATCC, Cat #CRL-2256) were maintained in EMEM (ATCC, Cat #30-2003) supplemented with 15% FBS. The day before RBL assay, cells were seeded at a concentration of 2×10^4 cells per well in 96-well plates. The media was replaced with 100 ul of EMEM supplemented with 0.5% FBS and compounds in dose response(5 nM to 100 uM) were added. After 15 min of pre-incubation at 37° C., arachidonic acid and calcium ionophore (A23187) were added to give a final concentration of 2.5 uM and 5 uM, respectively. After a further 10 min incubation at 37° C., culture supernatant was transferred and quantification of LTB4 was done with a Leukotriene B4 EIA kit (Cayman, Cat #520111) as instructed.

In a further test the target is human 5-LOX (Homo sapiens, UniProt P09917). Put plainly: 5-LOX enzyme activity, fluorescence method (5-HPETE, H2DCFDA). Particulars: read-out: 5-LO (IC50).

Structures were worked out from names or drawings and are uncertain. A value given as a limit tells only on which side of the number the result lay.

Consider `Cn1c(NCc2ccc(Oc3ncc(Cl)cn3)cc2)nc2ccc(N)cc21` [Compound 288], for which the concentration for a half-maximal effect (EC50) (as a rule, the concentration needed to bring the measured effect to its halfway point) in test [1] is more than 20 µM. Also, the IC50 (usually the concentration that gives 50% inhibition) at human 5-LOX was less than 1 µM.
For `Cn1c(NCc2ccc(Oc3ccc4c(Cl)cccc4n3)cc2)nc2ccc(N)cc21` [Compound 424], the EC50 in test [1] was less than 10 µM. In addition, the IC50 at human 5-LOX was less than 1 µM.
